Source: doi:10.1101/2022.09.10.507413
No constants are given. Whether binding was seen depends on the method and setting. Binding seen in cells or lysates may run through a third protein. Some results given as binding are weak or reduced against the parent protein; the word gives no strength. Sequences can lack the tags named with a protein.

By UniProt entry, the sequences of proteins in these tests, tags left out.
UniProt Q9QXS1: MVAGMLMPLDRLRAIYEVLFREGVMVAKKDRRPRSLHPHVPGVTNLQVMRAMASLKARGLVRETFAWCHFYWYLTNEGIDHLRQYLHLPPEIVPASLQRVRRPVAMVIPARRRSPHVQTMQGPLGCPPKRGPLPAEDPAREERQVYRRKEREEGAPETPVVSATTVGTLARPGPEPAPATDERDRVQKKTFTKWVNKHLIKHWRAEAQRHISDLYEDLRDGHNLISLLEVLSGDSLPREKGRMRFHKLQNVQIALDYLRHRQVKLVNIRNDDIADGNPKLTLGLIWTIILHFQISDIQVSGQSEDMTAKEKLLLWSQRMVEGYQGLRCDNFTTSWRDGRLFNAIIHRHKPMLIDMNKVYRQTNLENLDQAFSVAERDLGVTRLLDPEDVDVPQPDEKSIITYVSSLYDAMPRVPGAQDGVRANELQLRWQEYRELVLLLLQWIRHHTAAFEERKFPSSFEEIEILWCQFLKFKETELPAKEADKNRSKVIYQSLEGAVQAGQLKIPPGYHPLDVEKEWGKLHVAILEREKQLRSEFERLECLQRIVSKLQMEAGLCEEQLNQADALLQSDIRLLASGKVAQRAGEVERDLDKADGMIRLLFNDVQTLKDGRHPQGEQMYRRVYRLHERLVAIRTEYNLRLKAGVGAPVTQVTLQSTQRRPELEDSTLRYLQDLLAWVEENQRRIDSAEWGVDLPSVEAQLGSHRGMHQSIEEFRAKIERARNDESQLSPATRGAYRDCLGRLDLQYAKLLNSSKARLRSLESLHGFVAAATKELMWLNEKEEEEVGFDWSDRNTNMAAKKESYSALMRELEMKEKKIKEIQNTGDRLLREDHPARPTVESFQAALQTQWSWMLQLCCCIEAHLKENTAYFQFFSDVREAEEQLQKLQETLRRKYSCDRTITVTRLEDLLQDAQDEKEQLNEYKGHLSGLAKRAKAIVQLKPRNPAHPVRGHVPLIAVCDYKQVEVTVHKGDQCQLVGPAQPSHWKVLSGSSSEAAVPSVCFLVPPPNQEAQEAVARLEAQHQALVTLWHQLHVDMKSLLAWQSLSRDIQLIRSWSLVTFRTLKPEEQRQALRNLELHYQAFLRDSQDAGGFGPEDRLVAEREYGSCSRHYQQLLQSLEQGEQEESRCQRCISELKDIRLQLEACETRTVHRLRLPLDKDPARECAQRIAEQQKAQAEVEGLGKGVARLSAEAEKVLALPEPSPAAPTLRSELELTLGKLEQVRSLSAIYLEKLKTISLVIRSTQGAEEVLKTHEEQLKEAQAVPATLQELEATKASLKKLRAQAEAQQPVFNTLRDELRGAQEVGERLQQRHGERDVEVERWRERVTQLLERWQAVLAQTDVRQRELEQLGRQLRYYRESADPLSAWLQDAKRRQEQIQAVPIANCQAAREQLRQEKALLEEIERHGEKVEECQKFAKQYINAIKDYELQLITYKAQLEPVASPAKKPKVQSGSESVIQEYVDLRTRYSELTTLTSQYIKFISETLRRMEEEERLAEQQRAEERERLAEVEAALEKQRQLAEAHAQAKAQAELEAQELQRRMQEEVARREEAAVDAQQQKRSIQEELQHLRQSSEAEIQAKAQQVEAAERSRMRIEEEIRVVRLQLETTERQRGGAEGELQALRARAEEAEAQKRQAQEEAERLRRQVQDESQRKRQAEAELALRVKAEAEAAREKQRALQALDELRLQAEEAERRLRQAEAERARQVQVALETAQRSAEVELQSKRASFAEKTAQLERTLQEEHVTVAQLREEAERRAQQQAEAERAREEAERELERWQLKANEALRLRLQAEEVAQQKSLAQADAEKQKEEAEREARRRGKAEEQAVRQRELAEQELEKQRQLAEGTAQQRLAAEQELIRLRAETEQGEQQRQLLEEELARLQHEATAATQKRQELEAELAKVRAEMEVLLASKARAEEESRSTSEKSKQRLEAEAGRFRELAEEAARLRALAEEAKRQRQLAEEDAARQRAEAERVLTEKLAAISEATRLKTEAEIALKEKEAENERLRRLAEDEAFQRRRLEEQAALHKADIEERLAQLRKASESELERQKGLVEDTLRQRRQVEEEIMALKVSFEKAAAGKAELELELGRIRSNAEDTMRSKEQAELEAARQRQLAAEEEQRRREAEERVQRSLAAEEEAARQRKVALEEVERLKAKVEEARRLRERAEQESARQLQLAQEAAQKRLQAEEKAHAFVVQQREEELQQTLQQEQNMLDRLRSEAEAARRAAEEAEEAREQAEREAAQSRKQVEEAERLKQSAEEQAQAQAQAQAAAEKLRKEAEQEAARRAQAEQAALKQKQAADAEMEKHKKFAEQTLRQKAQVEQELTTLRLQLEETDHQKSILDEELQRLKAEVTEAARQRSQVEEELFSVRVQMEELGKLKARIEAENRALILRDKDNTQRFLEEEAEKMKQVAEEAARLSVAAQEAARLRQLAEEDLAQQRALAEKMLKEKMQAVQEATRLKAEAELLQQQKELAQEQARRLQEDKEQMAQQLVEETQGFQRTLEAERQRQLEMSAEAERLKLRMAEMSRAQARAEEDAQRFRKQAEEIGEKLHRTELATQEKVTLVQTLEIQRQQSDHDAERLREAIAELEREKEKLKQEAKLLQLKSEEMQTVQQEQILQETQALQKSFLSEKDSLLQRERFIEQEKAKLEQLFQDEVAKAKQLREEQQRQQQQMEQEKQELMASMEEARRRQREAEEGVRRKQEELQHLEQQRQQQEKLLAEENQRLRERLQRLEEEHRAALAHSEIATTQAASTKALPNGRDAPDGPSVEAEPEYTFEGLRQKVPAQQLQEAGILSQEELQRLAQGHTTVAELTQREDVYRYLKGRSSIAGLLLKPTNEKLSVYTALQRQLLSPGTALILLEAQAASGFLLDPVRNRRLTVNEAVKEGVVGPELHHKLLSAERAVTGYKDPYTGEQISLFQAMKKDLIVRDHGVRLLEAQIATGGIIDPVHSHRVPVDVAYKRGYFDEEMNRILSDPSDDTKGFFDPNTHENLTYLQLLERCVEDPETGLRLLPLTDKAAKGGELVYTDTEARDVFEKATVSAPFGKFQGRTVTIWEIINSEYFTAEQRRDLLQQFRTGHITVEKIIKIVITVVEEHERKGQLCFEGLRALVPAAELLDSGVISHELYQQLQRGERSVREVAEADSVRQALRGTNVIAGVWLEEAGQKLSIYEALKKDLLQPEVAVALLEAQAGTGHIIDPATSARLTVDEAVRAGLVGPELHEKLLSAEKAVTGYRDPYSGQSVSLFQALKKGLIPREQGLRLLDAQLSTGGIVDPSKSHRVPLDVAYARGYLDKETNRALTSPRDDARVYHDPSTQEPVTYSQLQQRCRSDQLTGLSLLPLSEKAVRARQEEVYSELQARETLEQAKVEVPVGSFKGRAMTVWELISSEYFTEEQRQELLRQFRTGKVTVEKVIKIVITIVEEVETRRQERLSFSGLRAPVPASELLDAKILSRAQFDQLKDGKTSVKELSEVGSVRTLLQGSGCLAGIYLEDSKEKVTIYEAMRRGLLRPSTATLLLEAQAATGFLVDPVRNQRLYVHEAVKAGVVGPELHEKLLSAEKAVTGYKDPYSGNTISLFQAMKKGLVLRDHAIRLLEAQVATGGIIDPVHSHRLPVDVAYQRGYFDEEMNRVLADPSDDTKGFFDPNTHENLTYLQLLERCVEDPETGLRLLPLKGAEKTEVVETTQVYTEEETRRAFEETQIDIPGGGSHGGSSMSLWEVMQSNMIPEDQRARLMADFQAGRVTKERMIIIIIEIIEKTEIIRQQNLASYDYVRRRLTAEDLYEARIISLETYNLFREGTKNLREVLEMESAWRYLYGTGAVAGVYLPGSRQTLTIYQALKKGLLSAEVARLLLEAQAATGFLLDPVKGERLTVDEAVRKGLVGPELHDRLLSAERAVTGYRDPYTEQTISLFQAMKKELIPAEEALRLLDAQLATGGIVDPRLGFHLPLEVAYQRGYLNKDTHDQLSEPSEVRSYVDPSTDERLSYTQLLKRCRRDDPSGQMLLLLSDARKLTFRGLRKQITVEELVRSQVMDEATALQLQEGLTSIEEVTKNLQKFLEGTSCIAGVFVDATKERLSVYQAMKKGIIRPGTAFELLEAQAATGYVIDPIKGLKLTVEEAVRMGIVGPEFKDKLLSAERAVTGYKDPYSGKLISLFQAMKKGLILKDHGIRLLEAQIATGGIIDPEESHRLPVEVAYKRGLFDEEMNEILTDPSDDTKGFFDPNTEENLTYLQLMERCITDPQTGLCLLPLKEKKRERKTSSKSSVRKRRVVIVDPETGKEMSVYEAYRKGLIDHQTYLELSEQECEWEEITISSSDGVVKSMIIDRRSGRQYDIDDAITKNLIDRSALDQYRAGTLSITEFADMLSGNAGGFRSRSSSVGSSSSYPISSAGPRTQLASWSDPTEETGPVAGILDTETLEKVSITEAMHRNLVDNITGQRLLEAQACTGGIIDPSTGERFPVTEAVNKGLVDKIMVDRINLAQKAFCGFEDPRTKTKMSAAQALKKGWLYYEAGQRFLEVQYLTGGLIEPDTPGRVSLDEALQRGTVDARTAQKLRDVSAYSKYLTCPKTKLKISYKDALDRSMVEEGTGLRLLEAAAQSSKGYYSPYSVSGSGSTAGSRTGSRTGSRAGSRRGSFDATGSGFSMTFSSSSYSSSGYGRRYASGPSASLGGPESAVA

Biological target: T1, Glutathione S-transferase theta 1 (Gstt1) (mouse (endogenous in PDAC-derived metastatic cell lines)) (UniProt Q64471)
T1 sequence: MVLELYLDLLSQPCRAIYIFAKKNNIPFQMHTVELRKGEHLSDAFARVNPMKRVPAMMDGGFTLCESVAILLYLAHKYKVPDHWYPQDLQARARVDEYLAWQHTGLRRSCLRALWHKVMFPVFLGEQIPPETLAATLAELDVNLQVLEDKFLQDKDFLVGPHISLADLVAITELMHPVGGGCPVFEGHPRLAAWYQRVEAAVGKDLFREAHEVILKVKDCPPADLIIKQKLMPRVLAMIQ
Assay: co-IP

Substance | binding
Plectin (from UniProt Q9QXS1 1-4691) | binds
Fibronectin (from UniProt P11276 33-2477) | binds
